Experimental data: patent US5521157A, “Modified polypeptide compound with VIP-like activity” (Sanwa Kagaku Kenkyusho Co., Ltd., priority 1993, dated 1996)
Part of at least one peptide drawing is inferred or uncertain, most often the ends.

How the values were obtained:
[1] = Measurement of elution time in reversed phase HPLC (correlates to hydrophobicity); format: physicochemical; details: reversed phase C-18 column, 40° C., 0.012N hydrochloric acid with 15, 25 and 50% acetonitrile, 50 minutes, 0.8 ml/min
Method: (Measurement of elution time in reversed phase HPLC)
It is well known that the elution time in HPLC with the use of a reversed phase column correlates to the hydrophobicity of a compound (cf. J. Med. Chem., vol. 18, pp. 549-552 (1975) and J. Pharm. Sci., vol. 66, pp. 747-749 (1977)). Thus, the elution time of each of the VIP analog derivatives obtained in the above Reference Production Example and production Examples was measured under the HPLC conditions as specified below. As a control, natural VIP having a human type amino acid sequence (purchased from Peptide Institute, INC.) was employed.
Column: μ-BONDASPHERE C-18 column (manufactured by Millipore Corporation, 3.9 mm×150 mm)
Eluent: eluted with 0.012N hydrochloric containing 15, 25 and 50% of acetonitrile in this order, for 50 minutes
Detection wavelength: 210 nm

[2] = tested on: histamine-induced bronchoconstriction; test: Duration of bronchoconstriction suppressing activity (Konzett-Rossler method); format: in vivo; details: male guinea pig, drug dropped directly into the respiratory tract, 5 μg/kg histamine intravenously
Method: (Duration of bronchoconstriction suppressing activity)
The inhibitory activity of the VIP analog derivatives, obtained in the Production Examples above, on histamine-induced bronchoconstriction was evaluated on test samples in accordance with a Konzett-Rossler method. Natural type VIP was used as a control.
First, a male guinea pig was fixed under urethane-anesthesia. After cutting the neck of the animal, a canula drug line was inserted into its jugular vein while a canula connected to a Konzett-Rossler device was inserted into its respiratory tract. After dropping a test drug directly into the respiratory tract, the head of the animal was held up for 1 minute to allow the drug to reach the lungs. Subsequently, 5 μg/kg of histamine was intravenously administered to the animal and the bronchoconstriction was measured over time. One minute before the administration of histamine, succinylcholine chloride was intravenously administered to the animal to thereby suppress spontaneous respiration during the experiment. […] Before the administration of the test drug, the intensity of bronchoconstriction induced by histamine was measured. Then, after the administration of the test drug, the time required for reducing by 50% the suppression of bronchoconstriction induced by the same dose of histamine as measured above was defined as t50. The t50 of each test drug was determined.

[3] = tested on: tracheostenosis induced by histamine; details: administration to man; cited from earlier work

CC[C@H](C)[C@H](NC(=O)[C@H](CO)NC(=O)[C@H](CC(N)=O)NC(=O)[C@H](CC(C)C)NC(=O)[C@H](Cc1ccc(O)cc1)NC(=O)[C@H](CCCCN)NC(=O)[C@H](CCCCN)NC(=O)[C@@H](NC(=O)[C@H](C)NC(=O)[C@H](CCSC)NC(=O)[C@H](CCC(N)=O)NC(=O)[C@H](CCCCN)NC(=O)[C@H](CCCNC(=N)N)NC(=O)[C@H](CC(C)C)NC(=O)[C@H](CCCNC(=N)N)NC(=O)[C@@H](NC(=O)[C@H](Cc1ccc(O)cc1)NC(=O)[C@H](CC(N)=O)NC(=O)[C@H](CC(=O)O)NC(=O)[C@@H](NC(=O)[C@H](Cc1ccccc1)NC(=O)[C@@H](NC(=O)[C@H](C)NC(=O)[C@H](CC(=O)O)NC(=O)[C@H](CO)NC(=O)[C@@H](N)Cc1c[nH]cn1)C(C)C)[C@@H](C)O)[C@@H](C)O)C(C)C)C(=O)N[C@@H](CC(C)C)C(=O)N[C@@H](CC(N)=O)C(N)=O [VIP, vasoactive intestinal polypeptide, reference compound]
Retention time [1]: 23.9 min
t50 [2]: 6 min
suppressive effect on tracheostenosis induced by histamine [3]: although slightly, a suppressive effect
